Measurements reported in paper PMC12863303.
No constants are given. Whether binding was seen depends on the method and setting. Binding seen in cells or lysates may run through a third protein. These calls come from enrichment with a bait or labelling near it, and not all partners need be listed. Where a sequence is shown, tags or fusion partners need not be part of it.

By UniProt entry, the sequences of proteins in these tests, tags left out.
UniProt O00567: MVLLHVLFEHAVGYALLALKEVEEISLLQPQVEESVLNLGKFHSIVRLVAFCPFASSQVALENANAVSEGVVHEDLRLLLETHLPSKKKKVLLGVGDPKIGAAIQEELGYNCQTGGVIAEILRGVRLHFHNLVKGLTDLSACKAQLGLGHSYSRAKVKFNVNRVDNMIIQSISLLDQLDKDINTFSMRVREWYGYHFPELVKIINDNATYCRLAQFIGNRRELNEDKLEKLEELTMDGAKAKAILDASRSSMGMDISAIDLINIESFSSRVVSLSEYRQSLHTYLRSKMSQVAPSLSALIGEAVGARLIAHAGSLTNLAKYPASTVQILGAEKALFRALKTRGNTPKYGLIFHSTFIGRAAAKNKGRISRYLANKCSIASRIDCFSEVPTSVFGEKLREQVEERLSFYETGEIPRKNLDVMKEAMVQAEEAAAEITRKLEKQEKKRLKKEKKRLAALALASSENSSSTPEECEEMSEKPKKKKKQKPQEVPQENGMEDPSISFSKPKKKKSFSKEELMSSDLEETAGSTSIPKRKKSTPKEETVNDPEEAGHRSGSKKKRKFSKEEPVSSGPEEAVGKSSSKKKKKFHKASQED

Target: T1, TurboID–V5–NONO (UniProt Q15233)
T1 sequence: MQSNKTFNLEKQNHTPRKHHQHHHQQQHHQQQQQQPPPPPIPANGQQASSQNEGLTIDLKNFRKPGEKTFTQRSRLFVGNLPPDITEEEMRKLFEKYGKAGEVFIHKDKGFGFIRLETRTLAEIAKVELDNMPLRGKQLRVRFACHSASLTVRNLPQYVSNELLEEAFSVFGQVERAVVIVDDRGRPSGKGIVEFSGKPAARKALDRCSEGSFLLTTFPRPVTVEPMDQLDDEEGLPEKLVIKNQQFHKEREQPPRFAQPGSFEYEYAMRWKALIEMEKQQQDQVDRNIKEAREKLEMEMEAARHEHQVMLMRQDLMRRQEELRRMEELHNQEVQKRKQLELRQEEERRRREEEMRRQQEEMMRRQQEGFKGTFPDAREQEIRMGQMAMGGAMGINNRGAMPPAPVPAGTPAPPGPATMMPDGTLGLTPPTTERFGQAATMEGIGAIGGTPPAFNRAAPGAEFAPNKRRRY
Assay: proximity labelling; TurboID–V5–NONO in MCF7 wild-type and NEAT1-knockout cells, DOX 24 h; control, SFN (20 µM) or HBSS starvation for 6 h; biotin 100 µM for the last 30 min; nuclear extracts, streptavidin magnetic beads, TMT LC-MS/MS; proteins enriched under stress against control cells

binding: binds
Substance: Nucleolar protein 56 (NOP56) (from UniProt O00567 1-594)
